Literature values in patent US8758816B2, “Compositions comprising azelastine and methods of use thereof” (priority 2004, dated 2014).

Settings: U.S. Pat. No. 5,164,194; cited from earlier work

For `CN1CCCC(n2nc(Cc3ccc(Cl)cc3)c3ccccc3c2=O)CC1` (racemic) [Azelastine, (±)-1-(2H)-phthalazinone, 4-[(4-chlorophenyl)methyl]-2-(hexahydro-1-methyl-1H-azepin-4-yl)-, mono-hydrochloride], the “dilution at which the bitter taste was still found unpleasant” value is listed as 1×10^6.

Where a name gives a salt, the structure may show the parent alone.
